Record: PubChem BioAssay AID1259293 (Sanger Institute, 2017)
Screen: 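Follow-up of kinase siRNAs for synthetic lethality with three anchor drugs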 (follow-up of hits). System: human NCI-H716 colorectal cancer cells. Knock-down reagent: single siRNA against human genes. Challenge: anchor drugs BYL719 at 1 µM, cetuximab at 5 µg/ml or trametinib at 10 nM, or DMSO vehicle alone. Measurement: 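Replicate-averaged cell survival relative to non-targeting pool 2 control, plus a synergy score calculated separately for each of the three anchor drugs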. Reading the numbers: synergy score with BYL719 and synergy score with cetuximab and synergy score with trametinib: higher = stronger synthetic lethal effect with drug; viability, siRNA alone in vehicle: higher = more cells survive knock-down. Call rule: 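An siRNA is active if its synergy score is above 0.10 for one or more of the three anchor drugs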. Meaning of the calls: active = synergy with at least one drug; inactive = no synergy with any drug.
The deposit covers 160 reagents; below is a random part of them. In the full data, 46 (29%) were called active. 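The method behind the synergy score is not described; each call refers to one siRNA in a single cell line.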 No viability above 1 is reported: the scale is capped. The record does not give: the amount of reagent, the time to read-out.

| Target gene | PubChem SID | synergy score with BYL719 | synergy score with cetuximab | synergy score with trametinib | viability, siRNA alone in vehicle (fraction of control) | call |
| --- | --- | --- | --- | --- | --- | --- |
| CSNK2A2 (GeneID 1459) | SID56476699 | -0.179 | -0.109 | 0.0668 | 1 | inactive |
| CSNK2A2 (GeneID 1459) | SID56476700 | -0.244 | -0.122 | 0.014 | 0.921 | inactive |
| CSNK2A2 (GeneID 1459) | SID56476701 | -0.174 | -0.337 | -0.109 | 0.301 | inactive |
| CSNK2A2 (GeneID 1459) | SID56476702 | -0.195 | -0.0566 | 0.102 | 0.421 | active |
| EPHA6 (GeneID 285220) | SID56477259 | 0.00227 | -0.0451 | 0.133 | 0.715 | active |
| EPHA6 (GeneID 285220) | SID56477260 | 0.128 | 0.0244 | 0.132 | 1 | active |
| EPHA6 (GeneID 285220) | SID56477261 | -0.0845 | 0.0206 | -0.0943 | 0.41 | inactive |
| EPHA6 (GeneID 285220) | SID56477262 | 0.0843 | -0.109 | 0.11 | 1 | active |
| PAK1 (GeneID 5058) | SID56475940 | -0.266 | -0.0303 | 0.0126 | 0.878 | inactive |
| PAK1 (GeneID 5058) | SID56475941 | -0.179 | -0.109 | -0.14 | 1 | inactive |
| PAK1 (GeneID 5058) | SID56475942 | -0.179 | 0.0571 | 0.0995 | 1 | inactive |
| PAK1 (GeneID 5058) | SID135611339 | -0.0394 | 0.141 | 0.0616 | 0.704 | active |

Only “synergy score with BYL719”, for 2 of the entries above:
EPHA6 (GeneID 285220) [SID56477259]	0.00227
EPHA6 (GeneID 285220) [SID56477260]	0.128

Further results follow:
| Target gene | PubChem SID | synergy score with BYL719 | synergy score with cetuximab | synergy score with trametinib | viability, siRNA alone in vehicle (fraction of control) | call |
| --- | --- | --- | --- | --- | --- | --- |
| PFKFB3 (GeneID 5209) | SID56477763 | -0.467 | -0.168 | -0.207 | 0.649 | inactive |
| PFKFB3 (GeneID 5209) | SID56477764 | -0.0368 | -0.169 | 0.0524 | 0.932 | inactive |
| PFKFB3 (GeneID 5209) | SID56477765 | -0.179 | -0.0191 | -0.194 | 1 | inactive |
| PFKFB3 (GeneID 5209) | SID135612150 | -0.0114 | 0.000997 | 0.01 | 0.791 | inactive |
| KCNH8 (GeneID 131096) | SID134236349 | -0.166 | -0.121 | 0.0379 | 0.986 | inactive |
| KCNH8 (GeneID 131096) | SID134236350 | 0.128 | 0.0788 | 0.0234 | 1 | active |
| KCNH8 (GeneID 131096) | SID134236351 | -0.295 | 0.0829 | -0.0625 | 0.736 | inactive |
| KCNH8 (GeneID 131096) | SID134236352 | -0.0282 | -0.264 | -0.158 | 0.823 | inactive |
